Source: doi:10.1101/2025.04.25.650293
These are yes or no findings as the source states them, for the method shown. Binding seen in cells or lysates may run through a third protein. A result given as binding can be weak or reduced; the word gives no strength.

How the values were obtained:
[1] = target: T1, PDHX (human (endogenous in 143B)) (UniProt O00330); assay: co-IP
T1 sequence: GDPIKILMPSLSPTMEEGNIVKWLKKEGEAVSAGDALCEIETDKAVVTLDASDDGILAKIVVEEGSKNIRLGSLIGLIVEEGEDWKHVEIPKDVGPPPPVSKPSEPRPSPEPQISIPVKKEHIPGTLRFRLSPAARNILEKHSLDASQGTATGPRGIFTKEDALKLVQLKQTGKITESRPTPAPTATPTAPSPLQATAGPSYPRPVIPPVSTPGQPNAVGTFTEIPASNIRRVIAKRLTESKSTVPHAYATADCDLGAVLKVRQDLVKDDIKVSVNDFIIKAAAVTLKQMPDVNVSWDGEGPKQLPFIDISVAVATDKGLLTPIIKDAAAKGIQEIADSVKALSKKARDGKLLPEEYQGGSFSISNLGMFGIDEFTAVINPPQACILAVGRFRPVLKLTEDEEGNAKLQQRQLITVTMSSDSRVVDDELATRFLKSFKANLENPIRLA

[2] = target: T2, DLAT (dihydrolipoamide S-acetyltransferase, the PDC E2 subunit) (human (endogenous in 143B)) (UniProt P10515); assay: co-IP
T2 sequence: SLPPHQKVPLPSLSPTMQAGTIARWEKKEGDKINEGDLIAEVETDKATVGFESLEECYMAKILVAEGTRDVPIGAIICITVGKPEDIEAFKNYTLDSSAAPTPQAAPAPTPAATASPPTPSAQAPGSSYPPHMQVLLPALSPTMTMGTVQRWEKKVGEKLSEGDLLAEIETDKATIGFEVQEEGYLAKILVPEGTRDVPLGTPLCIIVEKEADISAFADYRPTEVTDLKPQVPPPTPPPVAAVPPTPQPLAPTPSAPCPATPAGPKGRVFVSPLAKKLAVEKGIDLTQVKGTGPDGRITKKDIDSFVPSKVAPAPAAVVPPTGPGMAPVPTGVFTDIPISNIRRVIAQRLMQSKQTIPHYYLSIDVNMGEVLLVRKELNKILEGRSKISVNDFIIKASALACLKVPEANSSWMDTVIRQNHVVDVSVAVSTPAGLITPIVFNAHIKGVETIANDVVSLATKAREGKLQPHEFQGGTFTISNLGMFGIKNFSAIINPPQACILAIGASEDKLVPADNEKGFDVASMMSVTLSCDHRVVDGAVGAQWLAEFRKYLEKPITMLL

Substance	binding [1]	binding [2]
HA-ELMSAN1 1-330aa truncation (domain or fragment)	no binding	no binding
HA-ELMSAN1 1-720aa truncation (domain or fragment)	no binding	no binding
HA-ELMSAN1 1-879aa truncation (domain or fragment)	binds	binds
HA-tagged full-length (1-1099aa) ELMSAN1	binds	binds
